Data from PubChem BioAssay AID1508600 (Functional Genomics Laboratory (NCATS/FGL), 2020).
Among all 53,000 sequences or so, about 3,700 (7%) were called active.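 The calls were made as follows: active = gene knockdowns whose robust z-score for IL-1 alpha signal is at least 2 or at most -2, so actives lie on both sides; inactive = the rest.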 Some of the results follow.

Assay: Components of the Cytosolic LPS Sensing Pathway: Gene Identification via Genome-wide siRNA Screen;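 also: robust z of the log signal after scaling to non-targeting control siRNA wells of the plate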
Conditions: RAW264.7 macrophages, IL-1a HTRF, actives lie on both sides, screened at 100 nM (by protocol), cells primed 5 h with Pam3CSK4 first
Method in brief: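 RAW264.7 mouse macrophages reverse-transfected with single siRNAs (100 nM final) for 48h, primed with Pam3CSK4 for 5 hours, then transfected with LipidA for 24 hour. Supernatant IL-1a read by HTRF; values normalized to negative-control median, log-transformed robust z-scores.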

| Sequence | z-score |
| --- | --- |
| CGUACAAUCAUGUGUAAUGTT against 1110059E24Rik | inactive: -0.711 |
| GGCACGAGCUCUCAUCUUUTT against Slc27a4 | inactive: -0.752 |
| GGGCAGAAACAAAAGGUUATT against Tmlhe | inactive: 0.917 |
| GGCUAGAAAGGGUCUCAAATT against Cyp3a25 | inactive: -1.48 |
| GGAACUCCAAACCAGAUACTT against Gemin7 | inactive: -0.136 |
| GGGACAAAGCUUGUGAUCGTT against Lpar3 | inactive: -1.48 |
| GGAAUUCAGUUUUACCUGUTT against Slc6a13 | inactive: -0.152 |
| CCGGUCCUCUCAGAAAUUATT against Asz1 | inactive: -0.32 |
| CCGACGUGCAUGGAGAAAATT against 1700030J22Rik | inactive: -0.541 |
| GGAAGACAAAUCAGAAAGUTT against Marchf2 | inactive: -0.255 |
| GGAUCUACUACCUGUCUUUTT against Pygm | inactive: -0.31 |
| GCUUCUACCAAUGUUUAUCTT against Slc5a3 | inactive: 0.397 |
| CGCAUCGACAGCUAUGUCATT against Rhbdf1 | inactive: -1.93 |
| GGAAUACUCUUAAAUGACUTT against Zfp455 | inactive: 0.0637 |
| CCUUUUCAUAUGGUACUCCTT against Ranbp6 | inactive: -1.52 |
| GGAGAGCUGUUUGACUACATT against Melk | inactive: 1.45 |
| GCCUGUACUUUCGACUUCUTT against Fpr1 | inactive: -1.15 |
| GGAAAUUAUCUGCUUCUCATT against Dqx1 | inactive: -1.54 |
| GGACAAGUUUACAAUGCAATT against 4930465K10Rik | inactive: 0.379 |
| GGCCGGAUUGUCUAUAUUUTT against Per1 | inactive: -0.182 |
| GCCAGCUGUGGGAUUUCACTT against Gm9903 | inactive: -0.961 |
| GGCACUCAGGAAAAAAAAGTT against Clstn3 | inactive: -0.623 |
| GCCUUGAGUGCAUUAAUUUTT against Ube2r2 | inactive: 0.49 |
| CGGAGCUAAUAUUUUAUGCTT against Mospd1 | inactive: -1.17 |
| GAACAUGGCUUGCUUCAGATT against Mtln | inactive: 1.58 |
| CGAGGUCUAUAACAUGACCTT against Smox | inactive: 0.744 |
| GGUUGUGAAACAGCAAUUCTT against Ptx3 | inactive: -0.599 |
| GGUGUAGAGAUUCACAGGUTT against Foxd1 | inactive: -0.413 |
| CCGGGAAGUGGAUAAUUUUTT against Olfr1368 | inactive: 0.609 |

A few values from the results shown.
GGAAAUUAUCUGCUUCUCATT against Dqx1 – z-score: inactive: -1.54
GGCUAGAAAGGGUCUCAAATT against Cyp3a25 – z-score: inactive: -1.48
